Measured values from article PMC11345769 (Journal of medicinal chemistry, 2024).

Experiment: general procedure: Fmoc solid-phase peptide synthesis; 2-CTC resin (loading density 1.6 mmol/g); TBTU, HOAt, DIPEA
Conditions: whole synthesis

| Substance | isolated yield [%] |
| --- | --- |
| H2N-Glu-(SiFA)-SeFe-Gly-Asp-OH | 4.9 |
| H2N-Glu-(SiFA)SeFe-Gly-Tyr-OH | 12.8 |
| H2N-Glu-(SiFA)SeFe-Gly-Lys-OH | 10.1 |
| H2N-Lys-(SiFA)SeFe-Gly-Lys-OH | 13.3 |
| H2N-Lys-(SiFA)SeFe-Gly-Asp-OH | 7.4 |
| H2N-Lys-(SiFA)SeFe-Gly-Tyr-OH | 12.6 |
